Assay [1] concerns the target ATG12 (construct of the pull-downs, Fig. 3a and Supplementary Fig. 8a) (human) (UniProt O94817). Nature of the assay: pull-down.
For assay [2], the target named is ATG5 (construct of the pull-downs, Fig. 3a and Supplementary Fig. 8a) (human) (UniProt Q9H1Y0). The assay is described as follows: pull-down.
The target in assay [3] is endogenous ATG12 (human (endogenous in 293T)) (UniProt O94817). Nature of the assay: co-IP.
In assay [4] the target is endogenous ATG5 (human (endogenous in 293T)) (UniProt Q9H1Y0). Nature of the assay: co-IP.

Amino acid sequences for entries named in this document (tags omitted).
UniProt O94817: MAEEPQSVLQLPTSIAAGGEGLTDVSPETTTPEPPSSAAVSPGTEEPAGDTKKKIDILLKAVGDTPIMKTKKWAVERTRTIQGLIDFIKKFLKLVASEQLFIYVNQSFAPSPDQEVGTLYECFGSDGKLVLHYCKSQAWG
UniProt Q9H1Y0: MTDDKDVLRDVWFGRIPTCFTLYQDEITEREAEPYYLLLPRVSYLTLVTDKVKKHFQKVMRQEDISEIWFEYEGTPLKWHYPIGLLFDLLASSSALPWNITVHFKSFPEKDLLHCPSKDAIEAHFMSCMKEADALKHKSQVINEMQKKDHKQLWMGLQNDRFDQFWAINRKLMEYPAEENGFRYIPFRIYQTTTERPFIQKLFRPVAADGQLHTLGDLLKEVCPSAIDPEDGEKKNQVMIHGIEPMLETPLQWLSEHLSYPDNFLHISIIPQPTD
UniProt Q96KQ7: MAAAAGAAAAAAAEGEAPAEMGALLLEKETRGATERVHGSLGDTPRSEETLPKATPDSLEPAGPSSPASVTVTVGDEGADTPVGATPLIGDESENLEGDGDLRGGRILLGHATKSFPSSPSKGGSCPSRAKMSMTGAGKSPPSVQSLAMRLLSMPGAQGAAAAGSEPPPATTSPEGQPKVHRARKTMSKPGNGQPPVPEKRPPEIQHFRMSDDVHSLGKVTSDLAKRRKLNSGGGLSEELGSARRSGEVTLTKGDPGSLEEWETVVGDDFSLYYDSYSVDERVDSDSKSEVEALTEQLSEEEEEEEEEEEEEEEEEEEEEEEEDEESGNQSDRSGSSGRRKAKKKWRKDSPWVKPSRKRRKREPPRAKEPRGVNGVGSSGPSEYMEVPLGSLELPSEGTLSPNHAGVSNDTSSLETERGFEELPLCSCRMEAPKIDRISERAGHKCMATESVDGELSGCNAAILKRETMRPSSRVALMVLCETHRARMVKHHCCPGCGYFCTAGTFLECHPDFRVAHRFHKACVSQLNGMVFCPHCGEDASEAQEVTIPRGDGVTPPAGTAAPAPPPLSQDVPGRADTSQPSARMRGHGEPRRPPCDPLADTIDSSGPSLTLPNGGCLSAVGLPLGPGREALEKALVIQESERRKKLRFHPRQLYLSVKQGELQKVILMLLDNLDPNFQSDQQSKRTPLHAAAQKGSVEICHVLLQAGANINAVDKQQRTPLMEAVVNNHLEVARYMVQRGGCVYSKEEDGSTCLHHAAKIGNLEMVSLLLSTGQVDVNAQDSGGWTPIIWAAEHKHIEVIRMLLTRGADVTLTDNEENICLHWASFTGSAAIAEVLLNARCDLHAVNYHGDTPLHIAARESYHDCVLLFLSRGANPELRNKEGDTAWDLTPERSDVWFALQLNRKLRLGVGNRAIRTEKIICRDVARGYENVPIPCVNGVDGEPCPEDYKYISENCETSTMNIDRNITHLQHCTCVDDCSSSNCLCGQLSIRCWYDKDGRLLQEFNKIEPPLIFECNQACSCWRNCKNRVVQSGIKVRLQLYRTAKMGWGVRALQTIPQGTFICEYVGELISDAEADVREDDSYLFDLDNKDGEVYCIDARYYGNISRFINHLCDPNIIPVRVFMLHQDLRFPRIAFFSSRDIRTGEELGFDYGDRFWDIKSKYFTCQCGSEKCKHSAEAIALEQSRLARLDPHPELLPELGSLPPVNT

No constants are given. Whether binding was seen depends on the method and setting. Binding seen in cells or lysates may run through a third protein. Some results given as binding are weak or reduced against the parent protein; the word gives no strength.

With “G9a (construct of the GST pull-down, Fig. 3a) (from UniProt Q96KQ7 1-1210) (enzyme)”, the binding entry in assay [1] and in assay [2] was “binds” each time.

In the case of “endogenous G9a (from UniProt Q96KQ7 1-1210) (enzyme)”, the binding result in assay [3] and in assay [4] was “binds” in each case.

B1: JMJD2C (enzyme, UniProt Q9H3R0 1-1056)
chain: MEVAEVESPLNPSCKIMTFRPSMEEFREFNKYLAYMESKGAHRAGLAKVIPPKEWKPRQCYDDIDNLLIPAPIQQMVTGQSGLFTQYNIQKKAMTVKEFRQLANSGKYCTPRYLDYEDLERKYWKNLTFVAPIYGADINGSIYDEGVDEWNIARLNTVLDVVEEECGISIEGVNTPYLYFGMWKTTFAWHTEDMDLYSINYLHFGEPKSWYAIPPEHGKRLERLAQGFFPSSSQGCDAFLRHKMTLISPSVLKKYGIPFDKITQEAGEFMITFPYGYHAGFNHGFNCAESTNFATVRWIDYGKVAKLCTCRKDMVKISMDIFVRKFQPDRYQLWKQGKDIYTIDHTKPTPASTPEVKAWLQRRRKVRKASRSFQCARSTSKRPKADEEEEVSDEVDGAEVPNPDSVTDDLKVSEKSEAAVKLRNTEASSEEESSASRMQVEQNLSDHIKLSGNSCLSTSVTEDIKTEDDKAYAYRSVPSISSEADDSIPLSSGYEKPEKSDPSELSWPKSPESCSSVAESNGVLTEGEESDVESHGNGLEPGEIPAVPSGERNSFKVPSIAEGENKTSKSWRHPLSRPPARSPMTLVKQQAPSDEELPEVLSIEEEVEETESWAKPLIHLWQTKSPNFAAEQEYNATVARMKPHCAICTLLMPYHKPDSSNEENDARWETKLDEVVTSEGKTKPLIPEMCFIYSEENIEYSPPNAFLEEDGTSLLISCAKCCVRVHASCYGIPSHEICDGWLCARCKRNAWTAECCLCNLRGGALKQTKNNKWAHVMCAVAVPEVRFTNVPERTQIDVGRIPLQRLKLKCIFCRHRVKRVSGACIQCSYGRCPASFHVTCAHAAGVLMEPDDWPYVVNITCFRHKVNPNVKSKACEKVISVGQTVITKHRNTRYYSCRVMAVTSQTFYEVMFDDGSFSRDTFPEDIVSRDCLKLGPPAEGEVVQVKWPDGKLYGAKYFGSNIAHMYQVEFEDGSQIAMKREDIYTLDEELPKRVKARFSTASDMRFEDTFYGADIIQGERKRQRVLSSRFKNEYVADPVYRTFLKSSFQKKCQKRQ
As to B1, the binding result in assay [1] and in assay [2] was “binds” in each case.
